Values from PubChem BioAssay AID1508588 (Peter MacCallum Cancer Centre, 2020).
Aim: 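Knock-downs boosting vemurafenib effects on melanoma cell growth or lactate release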 (primary screen). Cells: human WM266.4 melanoma cells (BRAF V600 mutant). Knock-down reagent: siRNA pool against human genes, 40 nM. Timing: 96 h from transfection to read-out. Conditions: vemurafenib 300 nM (about IC25), added 48 h after transfection, for 48 h; comparison arm got DMSO vehicle only. Detection: 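Ratios to non-targeting siRNA for cell gain, counted as DAPI nuclei after minus before drug and averaged over two replicates, and for absorbance-read medium lactate per cell; both binned into fold-change classes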. Direction: cell gain with vemurafenib: higher = more cell gain than with non-targeting siRNA; lactate per cell with vemurafenib: higher = more lactate made per cell. Call rule: 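a knock-down counts as enhancing when its fold-change classes with vehicle and with vemurafenib, taken together, show a stronger drug effect on cell gain or lactate per cell; exact class pairs not stated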. Calls: active = enhances vemurafenib effect; inactive = no enhancement seen.
Shown is one part, drawn at random, of about 18,000 deposited reagents. Of all reagents, 790 (4.4%) got an active call. 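Calls rest on a combination of fold-change classes in drug and vehicle arms, not all shown here.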 Unmarked entries are inactive.

With knock-down of CNPY4 (GeneID 245812), the record shows cell gain with vemurafenib 0.34; lactate per cell with vemurafenib 2.76.
Knock-down of ARHGEF9 (GeneID 23229) resulted in: cell gain with vemurafenib 0.39; lactate per cell with vemurafenib 2.29.
With knock-down of UBXN10 (GeneID 127733) the results were cell gain with vemurafenib 0.74; lactate per cell with vemurafenib 0.83.
With knock-down of PPM1H (GeneID 57460), the screen gave cell gain with vemurafenib 1.06; lactate per cell with vemurafenib 1.12.
Silencing of MOSPD1 (GeneID 56180) came out at: cell gain with vemurafenib 0.65; lactate per cell with vemurafenib 0.42.
After knock-down of MRPL42 (GeneID 28977) the results were cell gain with vemurafenib -0.03; lactate per cell with vemurafenib 0.3.
Knock-down of STARD7 (GeneID 56910) resulted in: cell gain with vemurafenib 0.58; lactate per cell with vemurafenib 1.19.
After knock-down of C8orf33 (GeneID 65265) the results were cell gain with vemurafenib 0.25; lactate per cell with vemurafenib 1.01.
Knock-down of VWA8 (GeneID 23078) gave: cell gain with vemurafenib 1.11; lactate per cell with vemurafenib 0.52.
With knock-down of HOXA3 (GeneID 3200) the results were cell gain with vemurafenib 0.92; lactate per cell with vemurafenib 0.74.
Knock-down of LTBP1 (GeneID 4052) came out at: cell gain with vemurafenib 0.22; lactate per cell with vemurafenib 1.49.
HYCC2 (GeneID 285172) showed cell gain with vemurafenib 0.17; lactate per cell with vemurafenib 1.12.
For RABL2B (GeneID 11158), the entry reads cell gain with vemurafenib 0.17; lactate per cell with vemurafenib 1.44.
VPS39 (GeneID 23339) showed cell gain with vemurafenib 0.88; lactate per cell with vemurafenib 0.46.
Silencing of IL1R1 (GeneID 3554) resulted in: cell gain with vemurafenib 0.38; lactate per cell with vemurafenib 0.76.
MPPE1 (GeneID 65258) gave cell gain with vemurafenib 0.48; lactate per cell with vemurafenib 1.38.
RSBN1L (GeneID 222194) scored cell gain with vemurafenib 0.81; lactate per cell with vemurafenib 0.98.
Against OR5B2 (GeneID 390190), the entry reads cell gain with vemurafenib 0.74; lactate per cell with vemurafenib 0.46.
After knock-down of STRADA (GeneID 92335), the record shows cell gain with vemurafenib 0.18; lactate per cell with vemurafenib 1.56.
FOXC1 (GeneID 2296) gave cell gain with vemurafenib 0.69; lactate per cell with vemurafenib 1.11.
Against ENTR1 (GeneID 10807), the entry reads cell gain with vemurafenib 1.49; lactate per cell with vemurafenib 0.64.
Silencing of PLAUR (GeneID 5329) resulted in: cell gain with vemurafenib 0.43; lactate per cell with vemurafenib 1.23.
For CCBE1 (GeneID 147372), the entry reads cell gain with vemurafenib 0.1; lactate per cell with vemurafenib 2.13.
After knock-down of TEKT1 (GeneID 83659) the results were cell gain with vemurafenib 0.8; lactate per cell with vemurafenib 1.07.
TMEM237 (GeneID 65062) gave cell gain with vemurafenib 0.55; lactate per cell with vemurafenib 0.62.
ARFGEF1 (GeneID 10565) scored cell gain with vemurafenib 0.56; lactate per cell with vemurafenib 0.77.
After knock-down of RETREG3 (GeneID 162427), the record shows cell gain with vemurafenib 0.22; lactate per cell with vemurafenib 1.75.
Against SLC25A5 (GeneID 292), the entry reads cell gain with vemurafenib 1.33; lactate per cell with vemurafenib 1.12.
Silencing of FNDC1 (GeneID 84624) came out at: cell gain with vemurafenib 0.24; lactate per cell with vemurafenib 1.44.
With knock-down of PAQR8 (GeneID 85315), the screen gave cell gain with vemurafenib 0.85; lactate per cell with vemurafenib 0.77.
IFI30 (GeneID 10437) scored cell gain with vemurafenib 0.89; lactate per cell with vemurafenib 0.72.
MAP3K14 (GeneID 9020) scored cell gain with vemurafenib 0.45; lactate per cell with vemurafenib 2.46.
Against CTSS (GeneID 1520) the deposit lists cell gain with vemurafenib 0.74; lactate per cell with vemurafenib 0.86.
Against SLC75A1 (GeneID 10227), the values are cell gain with vemurafenib 0.41 (active); lactate per cell with vemurafenib 0.42.
Silencing of SPATA13 (GeneID 221178) gave: cell gain with vemurafenib 1.07; lactate per cell with vemurafenib 0.9.
With knock-down of SDHB (GeneID 6390), the record shows cell gain with vemurafenib 1; lactate per cell with vemurafenib 0.4.
For ATP6V1E2 (GeneID 90423), the entry reads cell gain with vemurafenib 0.71; lactate per cell with vemurafenib 1.56.
OR51B2 (GeneID 79345) scored cell gain with vemurafenib 0.48; lactate per cell with vemurafenib 1.
With knock-down of STC1 (GeneID 6781), the screen gave cell gain with vemurafenib 0.78; lactate per cell with vemurafenib 0.59.
Silencing of RPL10L (GeneID 140801) came out at: cell gain with vemurafenib 0.48; lactate per cell with vemurafenib 1.11.
KCNMB4 (GeneID 27345) gave cell gain with vemurafenib 0.67; lactate per cell with vemurafenib 0.73.
Against RAB38 (GeneID 23682) the deposit lists cell gain with vemurafenib 0.03; lactate per cell with vemurafenib 1.54.
For RTN2 (GeneID 6253) the deposit lists cell gain with vemurafenib 0.91; lactate per cell with vemurafenib 0.8.
For ANO8 (GeneID 57719), the entry reads cell gain with vemurafenib 0.18; lactate per cell with vemurafenib 0.73.
Knock-down of TUBG1 (GeneID 7283) resulted in: cell gain with vemurafenib 0.37; lactate per cell with vemurafenib 1.72.
For C9 (GeneID 735), the values are cell gain with vemurafenib 0.26 (active); lactate per cell with vemurafenib 0.15.
After knock-down of LIX1 (GeneID 167410), the record shows cell gain with vemurafenib 0.55; lactate per cell with vemurafenib 0.44.
After knock-down of CYFIP1 (GeneID 23191), the screen gave cell gain with vemurafenib 1.01; lactate per cell with vemurafenib 0.53.
After knock-down of PEX7 (GeneID 5191), the record shows cell gain with vemurafenib 0.9; lactate per cell with vemurafenib 0.73.
OSBPL5 (GeneID 114879) showed cell gain with vemurafenib 0.8; lactate per cell with vemurafenib 0.96.
Silencing of NOBOX (GeneID 135935) gave: cell gain with vemurafenib 0.44; lactate per cell with vemurafenib 1.92.
For OR51Q1 (GeneID 390061), the entry reads cell gain with vemurafenib 0.25; lactate per cell with vemurafenib 0.48.

Hits, among the entries above:
SLC75A1 (GeneID 10227) | cell gain with vemurafenib = 0.41 (active); lactate per cell with vemurafenib = 0.42
C9 (GeneID 735) | cell gain with vemurafenib = 0.26 (active); lactate per cell with vemurafenib = 0.15
